Results deposited as PubChem BioAssay AID504774 (Drosophila RNAi Screening Center, 2011)
In all, the deposit lists about 23,000 reagents; this is an unselected part of those that have a named target and a result. 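Values are quantile-normalised luminescence on an arbitrary scale; higher means more cells surviving MMS.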 Reagents against one gene are numbered here. A plus sign joins genes that one reagent is predicted to hit.

- Test: 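Genes required for cells to withstand methyl methanesulphonate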 (primary screen)
- System: Drosophila Kc167 cells
- Knock-down reagent: long dsRNA against Drosophila genes, about 0.25 µg dsRNA per well
- Timing: about 6 days: 3 days knock-down, then 3 days with or without MMS
- Conditions: methyl methanesulphonate 0.004% (w/v) for 3 days after knock-down
- Detection: 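ATP-dependent luminescence as a measure of live cells in MMS-exposed wells, quantile normalised within each plate, with replicate values also given as a mean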
- Scale: mean viability with MMS and viability with MMS: higher = more surviving cells after MMS

| gene | reagent | mean viability with MMS | viability with MMS, replicate 1 | viability with MMS, replicate 2 |
| --- | --- | --- | --- | --- |
| Obp99d (GeneID 43496) | 1 | 3.62e6 | 4.08e6 | 4.12e6 |
| CG34296 (GeneID 5740662) | 1 | 3.52e6 | 3.99e6 | 4.00e6 |
| Pgam5-2 (GeneID 37899) | 1 | 3.53e6 | 3.95e6 | 4.05e6 |
| CG15550 (GeneID 43666) | 1 | 3.48e6 | 3.99e6 | 3.88e6 |
| CG6420 (GeneID 43218) | 1 | 4.38e6 | 5.37e6 | 5.37e6 |
| sxe2 (GeneID 41954) | 1 | 3.72e6 | 4.24e6 | 4.13e6 |
| Urod (GeneID 35986) | 1 | 3.41e6 | 3.84e6 | 3.91e6 |
| CG11779 + CG5835 | 1 | 3.60e6 | 4.06e6 | 4.11e6 |
| Mitf (GeneID 3885647) | 1 | 3.80e6 | 4.28e6 | 4.29e6 |
| Mitf (GeneID 3885647) | 2 | 3.54e6 | 4.12e6 | 3.92e6 |
| LysRS (GeneID 31904) | 1 | 3.50e6 | 3.66e6 | 4.13e6 |
| Caf1-180 (GeneID 31801) | 1 | 3.47e6 | 3.80e6 | 3.93e6 |
| CG15499 (retired record) (GeneID 42546) | 1 | 3.70e6 | 4.19e6 | 4.20e6 |
| Mettl3 (GeneID 42844) | 1 | 3.85e6 | 4.37e6 | 4.32e6 |
| Ude (GeneID 42953) | 1 | 3.65e6 | 4.13e6 | 4.11e6 |
| Pof (GeneID 37947) | 1 | 3.58e6 | 4.11e6 | 4.03e6 |
| CG14459 (GeneID 40476) | 1 | 2.76e6 | 3.49e6 | 3.49e6 |
| CG14459 (GeneID 40476) | 2 | 3.40e6 | 3.96e6 | 3.77e6 |
| Galt (GeneID 33935) | 1 | 3.39e6 | 3.88e6 | 3.69e6 |
| Rbf (GeneID 31027) | 1 | 3.27e6 | 3.71e6 | 3.81e6 |
| Tl (GeneID 43222) | 1 | 3.67e6 | 4.22e6 | 4.08e6 |
| Rbp9 (GeneID 33498) | 1 | 3.60e6 | 4.18e6 | 3.95e6 |
| Rbp9 (GeneID 33498) | 2 | 3.47e6 | 4.00e6 | 3.80e6 |
| CG12480 (GeneID 32359) | 1 | 3.80e6 | 4.13e6 | 4.33e6 |
| CG2811 (GeneID 37988) | 1 | 3.38e6 | 3.80e6 | 3.81e6 |
| klu (GeneID 39228) | 1 | 3.45e6 | 3.85e6 | 3.95e6 |
| insv (GeneID 33441) | 1 | 3.46e6 | 3.86e6 | 3.97e6 |
| CG32651 (GeneID 318140) | 1 | 3.51e6 | 3.96e6 | 4.00e6 |
| jagn (GeneID 40714) | 1 | 3.60e6 | 3.92e6 | 4.29e6 |
| ACC (GeneID 35761) | 1 | 3.10e6 | 3.68e6 | 3.65e6 |
| ACC (GeneID 35761) | 2 | 3.48e6 | 3.95e6 | 3.91e6 |
| CG6179 (GeneID 32819) | 1 | 3.51e6 | 3.96e6 | 4.01e6 |
| mh (GeneID 32480) | 1 | 3.58e6 | 4.10e6 | 4.01e6 |
| CG15255 (GeneID 34913) | 1 | 3.39e6 | 3.82e6 | 3.84e6 |
| ND-51L1 (GeneID 36998) | 1 | 3.60e6 | 3.96e6 | 4.19e6 |
| RanBP3 (GeneID 42804) | 1 | 3.03e6 | 3.62e6 | 3.68e6 |
| RanBP3 (GeneID 42804) | 2 | 3.40e6 | 3.76e6 | 3.98e6 |
| AIF (GeneID 33390) | 1 | 3.47e6 | 4.05e6 | 3.75e6 |
| CG1236 (GeneID 40708) | 1 | 3.58e6 | 3.98e6 | 4.17e6 |
| CG3744 (GeneID 42972) | 1 | 3.92e6 | 4.55e6 | 4.39e6 |
| Mrp5 (GeneID 42362) | 1 | 3.66e6 | 4.18e6 | 4.12e6 |
| Mrp5 (GeneID 42362) | 2 | 3.67e6 | 4.29e6 | 4.03e6 |
| Pp1-Y2 (GeneID 3355173) | 1 | 3.73e6 | 4.21e6 | 4.20e6 |
| CG34187 (retired record) (GeneID 5740579) | 1 | 3.54e6 | 3.96e6 | 4.07e6 |
| Bka (GeneID 46032) | 1 | 3.39e6 | 3.85e6 | 3.78e6 |
| CG8774 (GeneID 41635) | 1 | 3.37e6 | 3.87e6 | 3.74e6 |
| CG6665 (GeneID 36903) | 1 | 3.60e6 | 4.12e6 | 4.04e6 |
| CG32027 (retired record) (GeneID 317830) | 1 | 3.38e6 | 3.92e6 | 3.78e6 |

Part of the list above, limited to “viability with MMS, replicate 1”.
CG15550 (GeneID 43666) = 3.99e6
CG6420 (GeneID 43218) = 5.37e6
sxe2 (GeneID 41954) = 4.24e6
